Results from article PMC7118133, “Dual functions of Aire CARD multimerization in the transcriptional regulation of T cell tolerance” (Nature Communications, 2020).
These are yes or no findings as the source states them, for the method shown. Values belong to the molecule of their own block, whether it stands above or below them.

By UniProt entry, the sequences of proteins in these tests, tags left out. Where a name states a change or a piece, a line headed by the entry shows the natural chain unless it says otherwise. Chains listed by the source or under a name are the forms on record and can include a tag or linker.
human Aire (hAire) CARD A58V (O43918, form named): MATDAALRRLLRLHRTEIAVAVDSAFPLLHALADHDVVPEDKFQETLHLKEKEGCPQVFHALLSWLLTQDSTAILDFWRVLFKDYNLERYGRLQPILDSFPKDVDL
human Aire (hAire) CARD K83E (O43918, form named): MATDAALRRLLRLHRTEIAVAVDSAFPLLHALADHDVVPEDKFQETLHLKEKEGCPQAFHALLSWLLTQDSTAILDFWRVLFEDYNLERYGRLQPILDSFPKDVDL
human Aire (hAire) CARD L13P (O43918, form named): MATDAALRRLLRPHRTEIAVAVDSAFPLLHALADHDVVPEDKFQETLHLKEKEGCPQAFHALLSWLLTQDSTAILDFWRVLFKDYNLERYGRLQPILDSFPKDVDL
human Aire (hAire) CARD L28P (O43918, form named): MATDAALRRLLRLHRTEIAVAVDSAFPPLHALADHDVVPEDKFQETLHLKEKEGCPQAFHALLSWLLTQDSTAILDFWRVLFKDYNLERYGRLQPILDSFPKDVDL
human Aire (hAire) CARD T16M (O43918, form named): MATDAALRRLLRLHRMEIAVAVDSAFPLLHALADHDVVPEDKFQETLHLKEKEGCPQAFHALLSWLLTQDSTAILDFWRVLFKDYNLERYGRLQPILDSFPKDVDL

Legend:
[1] = molecular target: human Aire (hAire) CARD A58V (human) (UniProt O43918); assay: negative-stain electron microscopy; filament formation of purified hAire CARD variants refolded from 6 M GdHCl by dialysis (20 mM HEPES pH 7.5, 1 M KCl, 5 mM βME, 16 h, 4 °C) and kept at 4 °C for another 24 h; diluted in TNE buffer to ~50–200 µg/ml, uranyl formate stain; both purified
[2] = molecular target: human Aire (hAire) CARD K83E (human) (UniProt O43918); assay: as above
[3] = molecular target: human Aire (hAire) CARD L13P (human) (UniProt O43918); assay: as above
[4] = molecular target: human Aire (hAire) CARD L28P (human) (UniProt O43918); assay: as above
[5] = molecular target: human Aire (hAire) CARD T16M (human) (UniProt O43918); assay: as above
[6] = molecular target: mouse Aire (mAire) CARD R16A/E18A (mouse) (UniProt Q9Z0E3); assay: negative-stain electron microscopy; filament formation of purified mAire CARD variants after cleavage of the NusA tag with HRV 3C (4 °C, 16 h); diluted in TNE buffer (100 mM Tris pH 8, 50 mM NaCl, 10 mM EDTA) to ~50–200 µg/ml, uranyl formate stain; WT in Fig. 1b also denatured and refolded; both purified
[7] = molecular target: mouse Aire (mAire) CARD D35A/D37A (mouse) (UniProt Q9Z0E3); assay: as above

Molecule: human Aire (hAire) CARD A58V (from UniProt O43918 1-106) (domain or fragment)
binding [1]: no binding (tested: ~50–200 µg/ml)

Molecule: human Aire (hAire) CARD K83E (from UniProt O43918 1-106) (domain or fragment)
binding [2]: no binding (tested: ~50–200 µg/ml)

Molecule: human Aire (hAire) CARD L13P (from UniProt O43918 1-106) (domain or fragment)
binding [3]: no binding (tested: ~50–200 µg/ml)

Molecule: human Aire (hAire) CARD L28P (from UniProt O43918 1-106) (domain or fragment)
binding [4]: no binding (tested: ~50–200 µg/ml)

B1: mouse Aire (mAire) CARD D35A/D37A (domain or fragment, UniProt Q9Z0E3 1-105)
chain: MAGGDGMLRRLLRLHRTEIAVAIDSAFPLLHALAAHAVVPEDKFQETLRLKEKEGCPQAFHALLSWLLTRDSGAILDFWRILFKDYNLERYSRLHSILDGFPKDV
binding [7]: no binding (tested: ~50–200 µg/ml)

Now from value to molecule:

binding [5]: no binding (tested: ~50–200 µg/ml)
Molecule: human Aire (hAire) CARD T16M (from UniProt O43918 1-106) (domain or fragment)

binding [6]: no binding (tested: ~50–200 µg/ml)
Molecule: mouse Aire (mAire) CARD R16A/E18A (from UniProt Q9Z0E3 1-105) (domain or fragment)
